PubChem BioAssay AID1224826 | NIAID, 2016
The whole screen tested about 17,000 reagents; shown is an unselected part. About 1,110 of them (6.6%) were called active. 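Active means lowered or raised reporter signal; replicate intensities are raw and not normalised per plate.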 Unmarked entries are inactive.

- Test: 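Genes that change LPS-induced Tnf promoter activity in mouse macrophages when knocked down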 (primary screen)
- Cells: RAW264.7 G9 macrophages from mouse bearing reporters for p65 (GFP) and the Tnf promoter (mCherry)
- Reagents: siRNA pool against mouse genes, 100 nM
- Duration: 16 h of LPS stimulation, after 2 days of siRNA transfection
- Challenge: bacterial lipopolysaccharide (Salmonella minnesota R595), 10 ng/ml
- Measured: 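Imaged Tnf reporter mCherry in nuclei, minus background, normalised per plate to the median and expressed as robust z-scores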
- Direction: Tnf reporter robust z-score: higher = stronger Tnf promoter reporter signal after LPS; Tnf reporter intensity: higher = stronger Tnf promoter reporter signal
- Hit rule: 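a well counts as active at a score of -1.3 or below (Tlr4 knock-down control median) or above 3 (raised signal); controls and wells holding fewer than 50 cells are excluded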
- Meaning of the calls: active = Tnf reporter clearly lowered or raised; inactive = no clear change in Tnf reporter

| gene | Tnf reporter robust z-score | fewer than 50 cells in well | Tnf reporter intensity, replicate 1 | Tnf reporter intensity, replicate 2 |
| --- | --- | --- | --- | --- |
| Zfp786 (zinc finger protein 786) | -0.9 | enough cells in well | 120 | 106 |
| Gpr137b (G protein-coupled receptor 137B) | -0.08 | enough cells in well | 296 | 32.1 |
| Tmem128 (transmembrane protein 128) | 2.2 | enough cells in well | 493 | 105 |
| Cwc25 (CWC25 spliceosome-associated protein) | -0.88 | enough cells in well | 169 | 58.5 |
| Dlec1 (deleted in lung and esophageal cancer 1) | 2.5 | enough cells in well | 432 | 228 |
| Rtl8a (retrotransposon Gag like 8A) | 2.51 | enough cells in well | 399 | 166 |
| Cngb3 (cyclic nucleotide gated channel beta 3) | 0.4 | enough cells in well | 291 | 226 |
| Hemk1 (HemK methyltransferase family member 1) | – | fewer than 50 cells per well; well left out of calls | 117 | 67 |
| Pus3 (pseudouridine synthase 3) | 0.3 | enough cells in well | 226 | 92.6 |
| Fam168a (family with sequence similarity 168, member A) | 0.91 | enough cells in well | 266 | 275 |
| Pilra (paired immunoglobin-like type 2 receptor alpha) | 2.83 | enough cells in well | 286 | 123 |
| Sla (src-like adaptor) | 0.29 | enough cells in well | 310 | 232 |
| Mvb12b (multivesicular body subunit 12B) | -0.28 | enough cells in well | 226 | 51.4 |
| Vmn1r93 (vomeronasal 1 receptor 93) | 2.26 | enough cells in well | 205 | 174 |
| Aldh8a1 (aldehyde dehydrogenase 8 family, member A1) | -0.81 | enough cells in well | 171 | 115 |
| Alb (albumin) | 0.76 | enough cells in well | 212 | 212 |
| Ank3 (ankyrin 3, epithelial) | 0.05 | enough cells in well | 160 | 185 |
| Gucy2e (guanylate cyclase 2e) | -0.4 | enough cells in well | 200 | 111 |
| Vmn1r69 (vomeronasal 1 receptor 69) | -0.56 | enough cells in well | 97.1 | 80.5 |
| Dusp13b (dual specificity phosphatase 13B) | 0.06 | enough cells in well | 242 | 206 |
| Cyp4a12b (cytochrome P450, family 4, subfamily a, polypeptide 12B) | 0.16 | enough cells in well | 207 | 174 |
| Mark4 (MAP/microtubule affinity regulating kinase 4) | 0.5 | enough cells in well | 213 | 203 |
| Ino80e (INO80 complex subunit E) | -0.31 | enough cells in well | 189 | 164 |
| Or1e34 (olfactory receptor family 1 subfamily E member 34) | -0.91 | enough cells in well | 130 | 75.8 |

Individual results from the entries so far:
Value for Vmn1r93 (vomeronasal 1 receptor 93) under “Tnf reporter intensity, replicate 1”: 205
Pus3 (pseudouridine synthase 3), fewer than 50 cells in well → enough cells in well
For “Tnf reporter intensity, replicate 1”, Cngb3 (cyclic nucleotide gated channel beta 3) reads 291
